The campaign covered roughly 400,000 compounds. About 5,500 (1.4%) were called active. This list was built around the results that the source calls inconclusive (neither active nor inactive); the mix of calls is not that of the screen. Calls follow the shape of the dose curve; as a rule, active = well fitted cell-killing curve with a large enough effect; inconclusive = small, poorly fitted or top-dose-only effect, or effect the other way; inactive = flat fitted curve, though single readings scatter. Potencies of inconclusive entries are doubtful fits and often do not repeat.
Experiment: qHTS assay for MDR1-selective chemotherapeutics: Primary screen using the parental adenocarcinoma cell KB-3-1; also: nearly all actives have a fitted effect of over 60% in size
Conditions: KB-3-1 viability, CellTiter-Glo ATP luminescence, 72 h; activity change, negative = cytotoxic: at 46.1 µM (top of the series)
Summary of the method: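 Parental KB-3-1 viability, qHTS format: 72 h compound exposure, 37 °C; CellTiter-Glo; media-only wells and DMSO plates as controls; concentration-effect fits on corrected data.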
In the case of `Cc1nc2c3cc(F)ccc3n(CCN3CCCCC3)c2s1`, the Potency was inconclusive: 20.6 µM [cytotoxic, single point].
With `CCNC(=O)C1CCCN1S(=O)(=O)c1ccc2ccccc2c1` (centres undefined) the Potency was inconclusive: 20.6 µM [cytotoxic, single point].
For `CCOc1ccc(-n2c(C)nc3cc(C(=O)NCc4ccc5c(c4)OCO5)ccc32)cc1`, the Potency was inconclusive: 0.0366 µM [rising, full curve].
With `CCc1cccc(CC)c1NC(=O)CN1C2CCCC1CC(NC(=O)Nc1cccc(OC)c1)C2` (centres undefined) the Potency was inconclusive: 29.1 µM [cytotoxic, single point].
For `CC1CCN(C(C)C(=O)Nc2ccccc2-c2ccccc2)CC1` (centres undefined), the Potency was inconclusive: 18.4 µM [cytotoxic, single point].
For `O=[N+]([O-])c1cc(S(=O)(=O)N2CCCC2)ccc1OCc1ccccc1`, the Potency was “inactive”.
With `Cn1c(=O)cc(SCC(=O)N2CCN(c3ccccc3F)CC2)c2ccc(Cl)cc21` the Potency was “inactive”.
In the case of `Cc1ccccc1OCCSc1nc2ccc(NC(=O)c3cccs3)cc2s1`, the Potency was inconclusive: 29.1 µM [cytotoxic, single point].
With `O=C(c1ccc(F)cc1)N1CCN(S(=O)(=O)c2ccc(Br)cc2)CC1` the Potency was “inactive”.
In the case of `CCCCOc1ccc(CONS(=O)(=O)c2ccc(NC(C)=O)cc2)cc1Cl`, the Potency was “inactive”.
In the case of `Cc1[nH]cnc1C(=O)N/N=C/c1ccc([N+](=O)[O-])s1`, the Potency was inconclusive: 18.4 µM [cytotoxic, single point].
In the case of `Cc1nn2c(CN(C(=O)COc3ccccc3)c3ccccc3)nnc2c2ccccc12`, the Potency was inconclusive: 25.9 µM [cytotoxic, single point].
With `CN1OC[C@@H]2CN[C@H](c3cccc(-c4ccccc4)c3)C[C@@H]21` the Potency was “inactive”.
For `NC(=O)[C@@H]1CC2(CC(c3cccc(NC(=O)COc4ccc(Cl)cc4)c3)=NO2)CN1C(=O)COc1ccc(Cl)cc1` (some centres undefined), the Potency was inconclusive: 8.2 µM [cytotoxic, partial curve, poor fit].
In the case of `COc1ccc(-c2nnc(SCC(=O)Nc3ccccc3)n2C)cc1`, the Potency was “inactive”.
For `O=C(NCC(=O)N1CC=C(c2ccccc2)CC1)c1ccccc1Br`, the Potency was inconclusive: 18.4 µM [cytotoxic, partial curve, poor fit].
For `CC1(C)Cc2c(cnn2-c2ccccc2)-c2c1c1ccccc1n2CC(O)CBr` (centres undefined), the Potency was inconclusive: 18.4 µM [cytotoxic, single point].
For `Cc1ccc(SCCN2CCC(C(C)(C)C)CCC2=O)cc1` (centres undefined), the Potency was inconclusive: 20.6 µM [cytotoxic, single point].
With `C[C@H](NC(=O)c1nc[nH]c1C(=O)N[C@@H](CCCCNC(=O)OC(C)(C)C)C(=O)OC(C)(C)C)c1ccccc1` the Potency was inconclusive: 29.1 µM [cytotoxic, single point].
In the case of `Cc1ccc(NC(=O)NNC(=O)Cn2nc(-c3ccccc3)c(-c3ccccc3)c(C#N)c2=O)cc1`, the Potency was active: 6.51 µM.
In the case of `C=CCc1cc(/C=C2/NC(=S)NC2=O)cc(OC)c1O`, the Potency was inconclusive: 29.1 µM [cytotoxic, single point].
With `CCOC(=O)c1c2c(n(C)c1C)C(=O)C(=O)c1ccc(Br)cc1-2` the Potency was active: 3.66 µM.
With `Cc1ccc(N=Nc2ccc(O)cc2)c(Br)c1` the Potency was inconclusive: 14.6 µM [cytotoxic, partial curve].
With `Cc1ccc(NS(=O)(=O)c2cccc(C(=O)NC3CCN(Cc4ccccc4)CC3)c2)cc1` the Potency was inconclusive: 29.1 µM [cytotoxic, single point].
In the case of `COc1ccccc1NC(=O)c1c(Nc2ccccc2C)sc(C(=O)Nc2cccc(Cl)c2)c1N`, the Potency was inconclusive: 8.2 µM [cytotoxic, partial curve, poor fit].
In the case of `CC1CN(c2nc3ccccn3c(=O)c2/C=C(\C#N)C(N)=O)CC(C)O1` (centres undefined), the activity change, negative = cytotoxic was inconclusive: -1.81%.
For `COc1cc(-c2cnc3c(NC=O)cc(-c4cccc(NC(C)=O)c4)cn23)cc(OC)c1OC`, the Potency was active: 0.366 µM.
With `NC(=O)CSc1nc2c(oc3ccccc32)c(=O)n1Cc1ccccc1` the Potency was “inactive”.
With `CC(=O)c1cccc(NC(=O)c2cccc3c(-c4cccc(C(N)=O)c4)coc23)c1` the Potency was inconclusive: 8.2 µM [cytotoxic, partial curve, poor fit].
With `Cc1c(Cl)cccc1NC(=O)CCCn1nc([N+](=O)[O-])cc1C` the Potency was inconclusive: 0.0073 µM [cytotoxic, full curve].
In the case of `C/C(=N\NC(N)=S)c1ccccc1`, the Potency was inconclusive: 29.1 µM [cytotoxic, single point].
In the case of `COc1ccc(CCNC(=O)c2cc(=O)c3cc(C)ccc3o2)cc1OC`, the Potency was inconclusive: 16.4 µM [cytotoxic, partial curve, poor fit].
In the case of `CC1(C(=O)NS(=O)(=O)c2ccccc2)CCN1C(=O)C/C=C/c1ccccc1` (centres undefined), the Potency was “inactive”.
For `CC1CCc2ccccc2N1CC(=O)Nc1cccc(S(=O)(=O)N2CCCC2)c1` (centres undefined), the Potency was inconclusive: 29.1 µM [cytotoxic, single point].
For `COC(=O)C1=C(C)N(c2ccc(C)c(C)c2)/C(=C/c2ccco2)C1=O`, the Potency was inconclusive: 29.1 µM [cytotoxic, single point].
For `CC1CCCCN1C(=S)Nc1ccc(OC(F)F)cc1` (centres undefined), the Potency was inconclusive: 16.4 µM [cytotoxic, single point].
For `Cc1ccc(C(=O)N2CCN(c3cccc(Cl)c3)CC2)cc1C`, the Potency was inconclusive: 18.4 µM [cytotoxic, single point].
With `COC(=O)Cc1c(C)nc(SCc2ccccc2)[nH]c1=O` the activity change, negative = cytotoxic was inconclusive: -0.299%.
In the case of `O=C1CCC(=O)N1CCSC(=S)N1CCOCC1`, the Potency was inconclusive: 0.164 µM [rising, full curve, poor fit].
In the case of `COc1cc(-c2n[nH]c(=S)n2-c2cccc(C(F)(F)F)c2)cc(OC)c1OC`, the Potency was “inactive”.
For `CCn1ncc(Br)c1C(=O)Nc1ccc2c(c1)OCCO2`, the Potency was inconclusive: 20.6 µM [cytotoxic, single point].
In the case of `CCn1cc(-c2cc(C(=O)O)c3ccccc3n2)cn1`, the Potency was inconclusive: 18.4 µM [cytotoxic, single point].
With `Cc1ccc(S(=O)(=O)Nc2ccc3c(c2)nc(C)n3C)cc1` the Potency was “inactive”.
For `COC(=O)CSc1nnc(-c2ccc(OC)c(OC)c2)o1`, the Potency was inconclusive: 29.1 µM [rising, single point].
In the case of `CC1=CC(C)(C)Nc2ccc(OC(=O)c3cccnc3)cc21`, the Potency was inconclusive: 16.4 µM [cytotoxic, single point].
With `Cc1ccc(-c2csc(NC(=O)c3ccc([N+](=O)[O-])o3)n2)cc1` the Potency was inconclusive: 25.9 µM [cytotoxic, single point].
With `CCN(CC)S(=O)(=O)c1cccc(NC(=O)C2SC(=Nc3ccc(C)cc3C)C(C(=O)NCC3CCCO3)=C2N)c1` (centres undefined) the Potency was inconclusive: 29.1 µM [cytotoxic, single point].
With `C=CC[C@@H](CC(=O)N(CCO)Cc1ccccc1)C(=O)N[C@H](COC(=O)[C@@H](CC=C)CC(=O)OC(C)(C)C)c1ccccc1` the Potency was inconclusive: 18.4 µM [cytotoxic, single point].
In the case of `CCOC(=O)c1nn(-c2cccc(OC)c2)c(-c2ccccc2)c1C(=O)c1ccccc1`, the Potency was inconclusive: 29.1 µM [cytotoxic, single point].
For `COc1ccccc1CCn1cnc(-c2ccc(Br)cc2)c1C(C)C`, the Potency was inconclusive: 23.1 µM [cytotoxic, single point].
In the case of `O=C(c1ccc(S(=O)(=O)Nc2cccc(C(F)(F)F)c2)cc1)N1CCN(c2ccccc2O)CC1`, the Potency was inconclusive: 18.4 µM [cytotoxic, single point].
In the case of `O=C(Nc1ncccc1O)c1ccc(S(=O)(=O)NCc2ccco2)cc1`, the Potency was “inactive”.
For `CCC(C(=O)NC1CCCCC1)n1c(SCc2cccc(C)c2)nc2ccncc21` (centres undefined), the Potency was inconclusive: 29.1 µM [cytotoxic, single point].
For `COc1ccc2c(c1)CCC1(C)CC(=O)C(Br)=C21` (centres undefined), the Potency was inconclusive: 16.4 µM [cytotoxic, partial curve].
For `O=C(CCCN1C(=O)c2cccc3cccc(c23)C1=O)N1CCN(c2ccccc2O)CC1`, the Potency was inconclusive: 3.26 µM [rising, full curve].
For `Cc1ccc(O)c(C(=O)C=Cc2ccccc2)c1`, the Potency was inconclusive: 29.1 µM [cytotoxic, single point].
In the case of `Cc1cc(=O)n(CC(=O)NC(C)c2ccccc2)c2c1c(C)nn2-c1cccc(F)c1` (centres undefined), the Potency was “inactive”.
In the case of `COc1cc(C(=O)NCCCCCC(=O)O)cc(OC)c1OC`, the Potency was “inactive”.
For `O=C(Nc1nnc(Cc2ccccc2)s1)Nc1ccccc1F`, the Potency was “inactive”.
In the case of `Oc1cc(-c2ccncc2)cc2cccnc12`, the Potency was active: 10.3 µM.
With `Cc1ccc(/C=C/C(=O)Nc2ccc(Oc3ccccc3)cc2)o1` the Potency was inconclusive: 20.6 µM [cytotoxic, partial curve].
With `Cn1c(=NC(=O)c2cccc([N+](=O)[O-])c2)sc2ccccc21` the Potency was “inactive”.
With `OC(c1cccc(Cl)c1)c1ncc(-c2ccc(Oc3ccccc3)cc2)[nH]1` (centres undefined) the Potency was “inactive”.
For `O=S(=O)(c1ccccc1)N1CCN(C(=S)NCc2ccccc2)CC1`, the Potency was “inactive”.
With `COC(=O)c1ccc(C(=O)OC)c(NC(=S)N2CCC(C(N)=O)CC2)c1` the Potency was “inactive”.
In the case of `CN(C)CCCNc1cc(-c2ccccc2)nc2cc(-c3cccc(F)c3)nn12`, the Potency was inconclusive: 25.9 µM [cytotoxic, single point].
In the case of `CCCCC(=O)NC(c1ccc(Cl)cc1Cl)c1ccc2cccnc2c1O` (centres undefined), the Potency was active: 3.26 µM.
For `CCCCCCCCCCN(CCCCCCCCCC)c1ccc(/C=C/c2ccnc3ccccc23)cc1`, the Potency was “inactive”.
In the case of `O=C(c1ccccc1)c1ccc2nc(N3CCN(c4ccccc4)CC3)c3nncn3c2c1`, the Potency was “inactive”.
% is scaled to controls: 0 for no effect and ±100 for the full control effect; potency is read from the fitted curve at half-maximal effect.
